Drawing on doi:10.1101/2021.12.08.471779, this text covers binding for 8 substances.

By UniProt entry, the sequences of proteins in these tests, tags left out. Where a name states a change or a piece, a line headed by the entry shows the natural chain unless it says otherwise.
UniProt P02929, whole entry, looked up, stated change not applied: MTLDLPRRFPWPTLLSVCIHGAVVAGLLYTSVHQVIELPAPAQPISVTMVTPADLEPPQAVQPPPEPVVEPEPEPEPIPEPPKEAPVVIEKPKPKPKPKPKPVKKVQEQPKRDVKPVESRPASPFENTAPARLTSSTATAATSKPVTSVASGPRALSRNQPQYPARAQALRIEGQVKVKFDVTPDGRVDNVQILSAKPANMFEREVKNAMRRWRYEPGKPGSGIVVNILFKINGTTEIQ

Positions count from the first letter of the chain named. No constants are given. Whether binding was seen depends on the method and setting. Binding seen in cells or lysates may run through a third protein. Some entries that bind do so weakly or less than the wild type.

Holding throughout (test): cross-linking
Assay [1] deals with T1, FepA E511C (Escherichia coli K-12) (UniProt P05825).
T1 sequence: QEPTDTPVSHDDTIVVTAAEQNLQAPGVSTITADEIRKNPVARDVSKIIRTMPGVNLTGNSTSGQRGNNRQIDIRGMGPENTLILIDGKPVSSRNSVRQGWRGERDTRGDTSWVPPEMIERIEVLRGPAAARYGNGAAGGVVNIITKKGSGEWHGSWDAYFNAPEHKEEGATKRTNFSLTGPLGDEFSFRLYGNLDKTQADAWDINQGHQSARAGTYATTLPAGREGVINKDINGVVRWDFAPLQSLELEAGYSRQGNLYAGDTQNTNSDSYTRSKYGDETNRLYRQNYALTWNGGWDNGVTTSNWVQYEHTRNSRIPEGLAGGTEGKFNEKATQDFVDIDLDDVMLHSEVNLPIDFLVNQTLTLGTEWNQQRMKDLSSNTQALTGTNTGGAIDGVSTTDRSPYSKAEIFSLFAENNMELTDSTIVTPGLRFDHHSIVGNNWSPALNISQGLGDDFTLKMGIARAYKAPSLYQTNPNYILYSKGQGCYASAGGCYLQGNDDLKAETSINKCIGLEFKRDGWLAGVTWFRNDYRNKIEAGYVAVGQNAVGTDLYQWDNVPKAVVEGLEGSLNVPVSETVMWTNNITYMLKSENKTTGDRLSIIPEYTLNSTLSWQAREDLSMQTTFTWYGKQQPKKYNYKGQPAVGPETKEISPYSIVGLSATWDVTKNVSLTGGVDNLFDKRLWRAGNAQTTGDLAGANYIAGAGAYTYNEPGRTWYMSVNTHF

The target of assay [2] is T2, FepA S112C (Escherichia coli K-12) (UniProt P05825).
T2 sequence: T1 sequence with S112C, C511E

The target in assay [3] is T3, FepA T51C (Escherichia coli K-12) (UniProt P05825).
T3 sequence: T1 sequence with T51C, C511E

In the case of “TonB C18G A209C (from UniProt P02929 1-239)”, the binding result in assay [1], in assay [2] and in assay [3] was “no binding” throughout.
On to “TonB C18G M201C (from UniProt P02929 1-239)”, for which the binding entry in assay [1] and in assay [2] was “no binding” each time.
As for “TonB C18G N208C (from UniProt P02929 1-239)”, the binding entry in assay [1], in assay [2] and in assay [3] was “no binding” in each case.
In the case of “TonB C18G Q160C (from UniProt P02929 1-239)”, the binding result was “no binding” in assay [1], “no binding” in assay [2] and “binds” in assay [3].
Take “TonB C18G R204C (from UniProt P02929 1-239)”: the binding result in assay [1], in assay [2] and in assay [3] was “no binding” each time.
For “TonB C18G R212C (from UniProt P02929 1-239)”, the binding entry in assay [1], in assay [2] and in assay [3] was “no binding” each time.
“TonB C18G R214C (from UniProt P02929 1-239)”: the binding entry in assay [1] and in assay [2] was “no binding” each time.
On to “TonB C18G V206C (from UniProt P02929 1-239)”, for which the binding entry in assay [1], in assay [2] and in assay [3] was “no binding” throughout.
